{"sequences": {"note": "Sequences of proteins named here, by UniProt entry; tags and fusion partners are left off.", "UniProt P04150": "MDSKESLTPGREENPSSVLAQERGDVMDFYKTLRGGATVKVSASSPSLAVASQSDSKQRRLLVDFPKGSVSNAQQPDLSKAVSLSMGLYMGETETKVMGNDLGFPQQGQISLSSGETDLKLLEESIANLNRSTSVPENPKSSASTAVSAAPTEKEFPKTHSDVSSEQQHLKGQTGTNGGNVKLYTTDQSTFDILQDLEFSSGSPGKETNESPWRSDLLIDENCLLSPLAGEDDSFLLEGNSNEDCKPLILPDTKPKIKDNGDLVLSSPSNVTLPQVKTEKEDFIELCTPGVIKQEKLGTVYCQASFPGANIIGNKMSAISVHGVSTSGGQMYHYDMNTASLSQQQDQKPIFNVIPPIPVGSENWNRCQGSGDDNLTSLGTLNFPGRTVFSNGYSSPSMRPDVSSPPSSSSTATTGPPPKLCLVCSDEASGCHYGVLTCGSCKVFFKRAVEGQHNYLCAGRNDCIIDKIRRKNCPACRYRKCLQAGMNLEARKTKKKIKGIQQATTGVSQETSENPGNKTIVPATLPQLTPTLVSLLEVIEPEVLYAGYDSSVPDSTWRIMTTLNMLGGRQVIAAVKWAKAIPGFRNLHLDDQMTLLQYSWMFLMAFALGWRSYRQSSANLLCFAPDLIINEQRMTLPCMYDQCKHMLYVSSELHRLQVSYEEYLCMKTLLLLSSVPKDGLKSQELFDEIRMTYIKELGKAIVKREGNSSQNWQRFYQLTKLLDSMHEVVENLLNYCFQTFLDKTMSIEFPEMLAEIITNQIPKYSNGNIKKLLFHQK"}, "source": "paper PMC6160001", "target": "T1, halo-tagged REVERBa (UniProt P20393)", "T1 sequence": "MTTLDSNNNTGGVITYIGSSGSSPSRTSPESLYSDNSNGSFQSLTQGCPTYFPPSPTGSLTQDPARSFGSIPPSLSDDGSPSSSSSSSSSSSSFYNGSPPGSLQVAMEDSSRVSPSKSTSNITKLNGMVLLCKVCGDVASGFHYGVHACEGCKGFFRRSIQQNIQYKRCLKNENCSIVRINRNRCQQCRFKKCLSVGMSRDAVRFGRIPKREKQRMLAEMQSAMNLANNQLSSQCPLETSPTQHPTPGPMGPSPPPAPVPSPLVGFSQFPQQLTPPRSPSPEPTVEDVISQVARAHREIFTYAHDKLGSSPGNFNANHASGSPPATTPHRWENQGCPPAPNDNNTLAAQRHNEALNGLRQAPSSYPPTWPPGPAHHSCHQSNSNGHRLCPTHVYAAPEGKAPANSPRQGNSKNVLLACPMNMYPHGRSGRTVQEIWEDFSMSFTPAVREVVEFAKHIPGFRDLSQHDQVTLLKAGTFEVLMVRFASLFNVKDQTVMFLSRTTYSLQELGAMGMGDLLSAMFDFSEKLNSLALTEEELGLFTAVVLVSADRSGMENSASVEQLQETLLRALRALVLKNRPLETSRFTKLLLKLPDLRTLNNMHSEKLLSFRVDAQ", "experiment": "co-IP; HEK293 cells transfected with halo-tagged REVERBa and/or halo-tagged GR; dex (100 nM) or DMSO for 1 hour; lysis in 150 mM NaCl, 20 mM Tris-HCl, 10% glycerol, 1% Triton X-100; precipitated with anti-REVERBa (GSK6F05) or anti-GR antibody, mouse or rabbit IgG as control; protein G or protein A magnetic beads, 4°C", "note": "Results are given in words; binding and its absence hold for the method and conditions named. In cells and extracts the contact can be indirect. Some entries that bind do so weakly or less than the wild type. Where a sequence is shown, tags or fusion partners need not be part of it."}
{"substance": "halo-tagged GR (glucocorticoid receptor) (from UniProt P04150 1-777)", "values": [{"measurement": "binding", "result": "binds"}]}
